This assay addresses CHD5 (mouse (endogenous in mouse brain)) (UniProt A2A8L1). In words: affinity purification with mass spectrometry; CHD5 antiserum (HD5A-A Day 77) crosslinked to protein A beads; mouse brain nuclear extract (12 mg) diluted 1:4 in RIPA buffer, overnight at 4°C; washed with TX-100 buffer; eluted with 0.1 M glycine pH 2.5; bands cut from an 8% SDS gel and sequenced.

Amino acid sequences for entries named in this document (tags omitted).
UniProt A2A8L1: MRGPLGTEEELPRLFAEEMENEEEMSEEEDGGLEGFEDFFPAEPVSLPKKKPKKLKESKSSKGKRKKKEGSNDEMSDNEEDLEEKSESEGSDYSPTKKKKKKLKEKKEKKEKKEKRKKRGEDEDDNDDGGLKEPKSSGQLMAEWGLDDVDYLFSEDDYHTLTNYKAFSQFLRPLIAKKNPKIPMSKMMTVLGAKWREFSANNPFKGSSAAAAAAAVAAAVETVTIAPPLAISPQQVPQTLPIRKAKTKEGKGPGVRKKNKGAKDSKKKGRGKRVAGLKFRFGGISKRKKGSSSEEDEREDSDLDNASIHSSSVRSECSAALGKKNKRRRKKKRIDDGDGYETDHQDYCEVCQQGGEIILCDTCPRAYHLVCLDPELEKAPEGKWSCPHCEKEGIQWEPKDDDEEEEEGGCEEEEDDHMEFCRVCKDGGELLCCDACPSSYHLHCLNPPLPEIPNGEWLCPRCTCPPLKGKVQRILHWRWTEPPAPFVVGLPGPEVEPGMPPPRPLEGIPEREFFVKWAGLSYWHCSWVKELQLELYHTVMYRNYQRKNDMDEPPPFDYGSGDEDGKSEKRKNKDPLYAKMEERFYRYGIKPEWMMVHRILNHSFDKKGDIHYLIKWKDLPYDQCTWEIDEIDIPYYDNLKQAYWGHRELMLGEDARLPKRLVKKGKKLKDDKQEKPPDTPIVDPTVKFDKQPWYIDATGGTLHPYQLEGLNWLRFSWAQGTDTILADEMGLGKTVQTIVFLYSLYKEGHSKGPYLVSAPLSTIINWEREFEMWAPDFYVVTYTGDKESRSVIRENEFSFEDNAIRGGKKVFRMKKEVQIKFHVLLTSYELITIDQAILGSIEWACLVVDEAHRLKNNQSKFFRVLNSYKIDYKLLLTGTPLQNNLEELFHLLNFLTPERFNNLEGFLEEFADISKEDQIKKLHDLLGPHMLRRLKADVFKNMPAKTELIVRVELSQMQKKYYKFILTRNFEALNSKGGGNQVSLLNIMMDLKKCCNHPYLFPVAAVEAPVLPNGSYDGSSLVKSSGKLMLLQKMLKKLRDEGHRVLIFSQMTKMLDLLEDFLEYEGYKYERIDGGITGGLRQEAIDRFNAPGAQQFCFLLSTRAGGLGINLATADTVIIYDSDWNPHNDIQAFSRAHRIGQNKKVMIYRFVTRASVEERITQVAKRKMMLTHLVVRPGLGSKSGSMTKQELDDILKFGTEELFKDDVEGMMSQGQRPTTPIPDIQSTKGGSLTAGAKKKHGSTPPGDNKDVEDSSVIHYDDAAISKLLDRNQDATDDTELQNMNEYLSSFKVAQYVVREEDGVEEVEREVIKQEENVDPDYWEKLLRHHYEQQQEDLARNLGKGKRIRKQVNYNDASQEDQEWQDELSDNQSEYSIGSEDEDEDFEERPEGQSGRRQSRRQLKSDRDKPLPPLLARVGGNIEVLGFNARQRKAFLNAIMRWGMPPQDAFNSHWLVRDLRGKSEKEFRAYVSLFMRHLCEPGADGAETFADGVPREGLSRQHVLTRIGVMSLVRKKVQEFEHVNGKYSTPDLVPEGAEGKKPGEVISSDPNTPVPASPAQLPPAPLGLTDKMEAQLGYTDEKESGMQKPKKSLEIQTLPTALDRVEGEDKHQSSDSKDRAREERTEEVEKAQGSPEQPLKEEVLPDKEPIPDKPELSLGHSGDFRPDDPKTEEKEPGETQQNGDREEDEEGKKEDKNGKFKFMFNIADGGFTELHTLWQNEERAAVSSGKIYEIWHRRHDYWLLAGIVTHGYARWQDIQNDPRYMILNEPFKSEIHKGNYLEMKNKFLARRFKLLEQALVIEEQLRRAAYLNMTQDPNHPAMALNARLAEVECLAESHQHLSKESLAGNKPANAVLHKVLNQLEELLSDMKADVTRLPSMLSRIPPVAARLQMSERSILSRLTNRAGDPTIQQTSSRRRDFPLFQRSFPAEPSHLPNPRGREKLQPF
UniProt P70288: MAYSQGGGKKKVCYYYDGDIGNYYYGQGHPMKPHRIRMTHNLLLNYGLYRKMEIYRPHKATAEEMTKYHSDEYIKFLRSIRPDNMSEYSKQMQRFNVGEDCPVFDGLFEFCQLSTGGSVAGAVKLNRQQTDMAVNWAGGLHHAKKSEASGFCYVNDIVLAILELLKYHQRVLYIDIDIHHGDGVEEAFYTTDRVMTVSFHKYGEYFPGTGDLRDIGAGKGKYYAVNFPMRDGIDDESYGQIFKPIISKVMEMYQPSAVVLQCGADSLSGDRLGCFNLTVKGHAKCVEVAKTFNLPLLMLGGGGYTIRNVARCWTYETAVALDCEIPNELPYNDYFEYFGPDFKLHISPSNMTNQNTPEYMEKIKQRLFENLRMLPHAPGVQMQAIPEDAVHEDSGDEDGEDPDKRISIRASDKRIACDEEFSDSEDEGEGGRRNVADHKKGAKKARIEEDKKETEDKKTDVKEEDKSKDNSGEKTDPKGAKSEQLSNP

No constants are given. Whether binding was seen depends on the method and setting. Binding seen in cells or lysates may run through a third protein. A yes stands for co-enrichment or nearness to the bait. Other partners may have been found.

On to HDAC2 (from UniProt P70288 1-488), for which the binding result was “binds”.

These data come from article PMC3172237.
